In this assay the test system is nude mice, LX-1 lung xenograft intrarenal, tumor weight T/C. The assay is described as follows: NCI In Vivo Anticancer Drug Screen. Data for tumor model Human Lung LX-1 Xenograft (intrarenal inoculation) in NU/NU Swiss (nude) mice. To be noted: T/C endpoint: mean tumor weight change, higher T/C = larger tumour; for T/C: evaluated on day 11. The method, boiled down:
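Readout: T/C, i.e. treated-group tumor measurement over vehicle-control measurement. Mice bearing transplantable tumors were dosed with compound or vehicle.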
On the technique in general: A xenograft is tissue or cells of one species grown in another, often human tumour cells in immunodeficient mice.

Where [1] appears, read: dose: 100.0 mg/kg/injection, schedule: Q01DX010 (sc), vehicle: Klucel (hydroxypropylcellulose) (HPC).
Setting [2] is: dose: 200.0 mg/kg/injection, schedule: Q04DX003 (sc), vehicle: saline.
Setting [3] is: dose: 400.0 mg/kg/injection, schedule: Q04DX003 (sc), vehicle: saline.
Setting [4] is: dose: 300.0 mg/kg/injection, schedule: Q04DX003 (sc), vehicle: saline.
The mark [5] stands for this setting: dose: 600.0 mg/kg/injection, schedule: Q04DX003 (sc), vehicle: saline.
[6] abbreviates: dose: 25.0 mg/kg/injection, schedule: Q01DX010 (sc), vehicle: saline.

The list shows only some results of the screen, not a fair sample: it gathers tests that were run many times, whatever their T/C, doses with no T/C, and many T/C values between a quarter and a half above the control. Other doses and runs of a compound stand elsewhere. T/C gives the treated animals as a percentage of the vehicle group. Schedule codes are those of the source, read here as Q, the interval in days (D) or hours (H), X, the number of doses. Some T/C values carry the count of animals alive at the toxicity check (mostly the fifth day); without a count, all were alive then. Some entries give survivors of the animals treated and no T/C: the source holds a T/C of zero for them, seemingly a mark for toxic or unscored doses. Survivors were counted at the toxicity check, usually on the fifth day, unless a day is given; later deaths do not show. Some doses were run more than once; the results are listed from low to high.

As for `CC(=O)OCC(=O)[C@@]12OC(C)(C)O[C@@H]1C[C@H]1[C@@H]3CC(C=O)=C4C=C(OCCCl)CC[C@]4(C)[C@@]3(F)[C@@H](O)C[C@@]12C`, the survivor count (dose: 100.0 mg/kg/injection, schedule: Q04DX003 (sc), vehicle: Klucel (hydroxypropylcellulose) (HPC)) is reported as 1 of 6 on day 11 and the survivor count (dose: 200.0 mg/kg/injection, schedule: Q04DX003 (sc), vehicle: Klucel (hydroxypropylcellulose) (HPC)) is recorded as 2 of 6 on day 11.

Turning to `COC(C(=O)C(O)C(C)O)C1Cc2cc3cc(OC4CC(OC(C)=O)C(OC5CC(O)C(OC)C(C)O5)C(C)O4)cc(O)c3c(O)c2C(=O)C1OC1CC(OC2CC(OC3CC(C)(O)C(OC(=O)C(C)C)C(C)O3)C(O)C(C)O2)C(O)C(C)O1` (stereo not drawn), the survivor count is 0 of 3 on day 11 (dose: 4.0 mg/kg/injection, schedule: Q01DX010 (sc), vehicle: saline with Tween-80); 0 of 3 on day 11 and 0 of 6 on day 11 (dose: 8.0 mg/kg/injection, schedule: Q01DX010 (sc), vehicle: saline with Tween-80); 0 of 3 on day 11 (dose: 8.0 mg/kg/injection, schedule: Q04DX003 (sc), vehicle: saline with Tween-80).

Take `C=CCNc1ccc(C)cc1`: the T/C under setting [1] is 143 % of control [2 of 2 alive on day 11].

`O=C1N[C@@H]([C@H]2CC[C@H](Cl)CN2)C(=O)N[C@H]1[C@H]1CC[C@H](Cl)CN1`: the T/C (dose: 2.5 mg/kg/injection, schedule: Q01DX010 (sc), vehicle: water) was 125 % of control [2 of 2 alive on day 11]. Besides, the survivor count (dose: 10.0 mg/kg/injection, schedule: Q01DX010 (sc), vehicle: water) was 0 of 2 on day 11; the survivor count (dose: 20.0 mg/kg/injection, schedule: Q01DX010 (sc), vehicle: water) was 0 of 2 on day 11; the survivor count (dose: 20.0 mg/kg/injection, schedule: Q04DX003 (sc), vehicle: water) is 3 of 6 on day 11; the survivor count (dose: 40.0 mg/kg/injection, schedule: Q04DX003 (sc), vehicle: water) is given as 3 of 6 on day 11.

Take `O=C(/C=C(\Cl)C(=O)NO)NO`: under setting [2], the T/C was 129 % of control. In addition, the survivor count reads like this: under setting [3], 0 of 6 on day 11; (dose: 800.0 mg/kg/injection, schedule: Q04DX003 (sc), vehicle: saline) 0 of 6 on day 11.

On to `CCCCCCCC(=O)[O][Hg][CH2]C1COC([CH2][Hg][O]C(=O)CCCCCCC)CO1` (stereo not drawn), for which the T/C (dose: 12.5 mg/kg/injection, schedule: Q01DX010 (sc), vehicle: saline with Tween-80) is 130 % of control.

In the case of `OCC1OC(n2cnc3c2NC=NC[C@H]3O)CC1O` (stereo partly drawn), the survivor count is on record as 2 of 6 on day 11 (dose: 8.0 mg/kg/injection, schedule: Q01DX010 (sc), vehicle: water) and 1 of 6 on day 11 (dose: 16.0 mg/kg/injection, schedule: Q01DX010 (sc), vehicle: water).

For the compound `COc1ccc(C(N)=O)cc1N=NN(C)C`, the survivor count under setting [1] is listed as 0 of 3 on day 11 and the survivor count (dose: 200.0 mg/kg/injection, schedule: Q01DX010 (sc), vehicle: Klucel (hydroxypropylcellulose) (HPC)) is 0 of 3 on day 11.

In the case of `O=c1[nH]c(=O)n(C2CC(O)C(CO)O2)cc1Br` (stereo not drawn), the survivor count (dose: 1600.0 mg/kg/injection, schedule: Q01DX010 (sc), vehicle: Klucel (hydroxypropylcellulose) (HPC)) is on record as 0 of 3 on day 11.

Take `C[C@H]1C[C@@H]2[C@H]([C@@H](O)C[C@@]3(C)[C@H]2CC[C@]3(O)C(=O)CO)[C@@]2(C)C=CC(=O)C=C12`: where the note is “dose: 1600.0 mg/kg/injection, schedule: Q04DX003 (sc), vehicle: Klucel (hydroxypropylcellulose) (HPC)”, the survivor count is given as 3 of 6 on day 11.

`CC(C)[NH-].CC(C)[NH-].[Cl][Pt+2][Cl]`: the survivor count (dose: 200.0 mg/kg/injection, schedule: Q01DX010 (sc), vehicle: dextrose) is reported as 0 of 3 on day 11.

For the compound `COc1ccc2c(NCCCCCCCCNc3c4ccccc4nc4cc(OC)ccc34)c3ccccc3nc2c1`, the T/C by setting is: (dose: 4.0 mg/kg/injection, schedule: Q04DX003 (sc), vehicle: suspension in saline) 149 % of control; (dose: 8.0 mg/kg/injection, schedule: Q04DX003 (sc), vehicle: suspension in saline) 145 % of control.

Turning to `OC(C1CO1)C(O)C1CO1` (stereo not drawn), the survivor count is on record as 0 of 3 on day 11 (dose: 4.0 mg/kg/injection, schedule: Q01DX010 (sc), vehicle: saline) and 0 of 3 on day 11 (dose: 8.0 mg/kg/injection, schedule: Q01DX010 (sc), vehicle: saline).

As to `CS(=O)(=O)c1ncc(Br)cn1`, the survivor count (dose: 600.0 mg/kg/injection, schedule: Q04DX003 (sc), vehicle: saline with Tween-80) is given as 0 of 6 on day 11.

Take `CS(=O)(=O)OCCCNCCCOS(C)(=O)=O`: the survivor count is, setting by setting: (dose: 150.0 mg/kg/injection, schedule: Q04DX003 (sc), vehicle: saline) 2 of 6 on day 11; under setting [4], 0 of 6 on day 11; under setting [5], 0 of 6 on day 11.

With `CCN=C=NCCCN(C)C`, the survivor count under setting [2] is on record as 0 of 6 on day 11.

Turning to `CCCCNC(C)[C@]1(O)Cc2c(O)c3c(c(O)c2[C@@H](OC2CC(N)C(O)C(C)O2)C1)C(=O)c1c(OC)cccc1C3=O` (stereo partly drawn), the survivor count was 0 of 3 on day 11 under setting [6] and 0 of 3 on day 11 (dose: 50.0 mg/kg/injection, schedule: Q01DX010 (sc), vehicle: saline).

Regarding `Nc1cc2[nH]cnc2c(=O)[nH]1`, the survivor count (dose: 400.0 mg/kg/injection, schedule: Q01DX010 (sc), vehicle: saline) is reported as 0 of 6 on day 11.

As for `CC[C@]1(O)C[C@H]2CN(CCc3c([nH]c4ccccc34)[C@@](C(=O)OC)(c3cc4c(cc3OC)N(C=O)[C@H]3[C@@](O)(C(=O)OC)[C@H](OC(C)=O)[C@]5(CC)C=CCN6CC[C@]43[C@@H]65)C2)C1`, the survivor count (dose: 1.0 mg/kg/injection, schedule: Q01DX010 (sc), vehicle: saline) is recorded as 1 of 3 on day 11.

Take `Cc1ccc2nc(-c3ccc4nc(-c5ccc(N=Nc6ccc(-c7nc8ccc(-c9nc%10ccc(C)c(S(=O)(=O)O)c%10s9)cc8s7)cc6)cc5)sc4c3)sc2c1S(=O)(=O)O`: under “dose: 200.0 mg/kg/injection, schedule: Q04DX003 (sc), vehicle: suspension in saline”, the T/C is 145 % of control.

For `CCC(=O)Sc1ccccc1C(=O)Nc1ccc(Cl)cc1`, the T/C (dose: 1200.0 mg/kg/injection, schedule: Q04DX003 (sc), vehicle: saline with Tween-80) is 146 % of control.

As to `[Cl][Mn][Cl]`, the survivor count reads like this: under setting [4], 0 of 6 on day 11; under setting [5], 0 of 6 on day 11.

Consider `CN(C)CCN1C(=O)c2cccc3cc([N+](=O)[O-])cc(c23)C1=O`, for which, where the note is “dose: 4.5 mg/kg/injection, schedule: Q04DX003 (sc), vehicle: saline with Tween-80”, the T/C is 130 % of control.

As for `NCCc1cc(O)c(O)c(O)c1`, the T/C under setting [3] is 145 % of control.

For the compound `Cc1cn(C2CC3[O][Sn]([c]4ccccc4)([c]4ccccc4)[O]CC3O2)c(=O)[nH]c1=O` (stereo not drawn), under “dose: 1200.0 mg/kg/injection, schedule: Q04DX003 (sc), vehicle: saline”, the T/C was 138 % of control.

On to `COC1=C(OC)C(=O)C(SC/C=C(\C)CCCC(C)CCCC(C)CCCC(C)C)=CC1=O` (stereo not drawn), for which the survivor count (dose: 300.0 mg/kg/injection, schedule: Q04DX003 (sc), vehicle: saline with Tween-80) is 3 of 5 on day 11.

`COc1cc2cc3c4cc(OC)c(OC)cc4cc[n+]3c(C)c2cc1OC` (tested in a mixture with another compound): the T/C under setting [6] is 148 % of control. Also, the survivor count (dose: 200.0 mg/kg/injection, schedule: Q01DX010 (sc), vehicle: saline) is 0 of 3 on day 11.

For `OCC12COCN1COC2`, the T/C is, setting by setting: under setting [4], 147 % of control; under setting [5], 142 % of control [5 of 6 alive on day 11].

For the compound `Cc1c2c(ccc3ccccc32)c[n+]2ccccc12`, under setting [6], the survivor count is on record as 0 of 3 on day 11.

The record behind these values is PubChem BioAssay AID264 (DTP/NCI, 2004).
